From article PMC12205872, “ESSENTIAL MEIOTIC ENDONUCLEASE 1 is required for chloroplast development and DNA repair in rice”
Residue numbers refer to the chain shown, from its start. Weaker means in comparison with the reference protein, sequence or condition of that experiment. Protein sequences can lack the tags named with them.

How the values were obtained:
Assay in all cases: EMSA
[1] = biological target: T1, OsEME1 E490A (Oryza sativa L. japonica cv. KY131) (UniProt Q0J9J6); conditions: shift dramatically reduced, cleavage reduced; EMSA/cleavage: 25 mM Tris-HCl pH 7.5, 1 mM MgCl2, 1 mM DTT, 5 mM ATP, 2.5 uM Cy5 substrate, 20 uM protein, 30 C; recombinant protein; residues 1-650; protein details: MBP cleaved by TEVp
T1 sequence (looked up): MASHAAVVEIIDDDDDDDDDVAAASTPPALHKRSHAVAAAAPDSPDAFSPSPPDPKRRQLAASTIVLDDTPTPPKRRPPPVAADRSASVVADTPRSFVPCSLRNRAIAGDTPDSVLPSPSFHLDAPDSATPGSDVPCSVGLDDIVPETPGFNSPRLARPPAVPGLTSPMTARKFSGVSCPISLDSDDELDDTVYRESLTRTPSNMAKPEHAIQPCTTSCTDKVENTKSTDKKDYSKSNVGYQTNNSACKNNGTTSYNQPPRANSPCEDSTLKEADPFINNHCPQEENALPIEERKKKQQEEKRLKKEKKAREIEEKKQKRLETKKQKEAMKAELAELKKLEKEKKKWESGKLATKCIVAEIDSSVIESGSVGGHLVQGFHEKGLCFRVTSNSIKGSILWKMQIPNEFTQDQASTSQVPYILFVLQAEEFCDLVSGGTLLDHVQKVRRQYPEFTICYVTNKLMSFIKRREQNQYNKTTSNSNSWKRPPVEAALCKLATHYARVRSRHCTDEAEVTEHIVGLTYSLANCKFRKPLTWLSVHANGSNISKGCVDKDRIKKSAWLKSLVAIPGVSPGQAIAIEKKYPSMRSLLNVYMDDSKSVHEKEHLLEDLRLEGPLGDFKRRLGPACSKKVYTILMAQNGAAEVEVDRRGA

[2] = biological target: T2, OsEME1 P487A (Oryza sativa L. japonica cv. KY131) (UniProt Q0J9J6); conditions: shift decreased, cleavage increased; EMSA/cleavage: 25 mM Tris-HCl pH 7.5, 1 mM MgCl2, 1 mM DTT, 5 mM ATP, 2.5 uM Cy5 substrate, 20 uM protein, 30 C; recombinant protein; residues 1-650; protein details: MBP cleaved by TEVp
T2 sequence (looked up): T1 sequence (looked up) with P487A, A490E

[3] = biological target: T3, OsEME1 L439V (Oryza sativa L. japonica cv. KY131) (UniProt Q0J9J6); conditions: shift dramatically reduced, cleavage reduced; EMSA/cleavage: 25 mM Tris-HCl pH 7.5, 1 mM MgCl2, 1 mM DTT, 5 mM ATP, 2.5 uM Cy5 substrate, 20 uM protein, 30 C; recombinant protein; residues 1-650; protein details: MBP cleaved by TEVp
T3 sequence (looked up): T1 sequence (looked up) with L439V, A490E

[4] = biological target: T4, OsEME1 K494E (Oryza sativa L. japonica cv. KY131) (UniProt Q0J9J6); conditions: shift dramatically reduced, cleavage reduced; EMSA/cleavage: 25 mM Tris-HCl pH 7.5, 1 mM MgCl2, 1 mM DTT, 5 mM ATP, 2.5 uM Cy5 substrate, 20 uM protein, 30 C; recombinant protein; residues 1-650; protein details: MBP cleaved by TEVp
T4 sequence (looked up): T1 sequence (looked up) with A490E, K494E

Measured: binding result

GACGCTGCCGAATTCTGGCTTGCTAGGACATCTTTGCCCACGTTGACCCG / GCGATAGTCTCTAGACAGCATGTCCTAGCAAGCCAGAATTCGGCAGCGTC [Y12]
binds more weakly: all assays above
